{
  "source": "paper PMC6540285",
  "about": "“Evaluation of Protein Kinase Inhibitors with PLK4 Cross-Over Potential in a Pre-Clinical Model of Cancer” (International Journal of Molecular Sciences, 2019)",
  "format_in_all_cases": "cell-based",
  "key": {"DAOY cells [1]": {"system": "DAOY cells", "conditions": "Homo sapiens, read-out: MTT: IC50 of the proliferation assay"}, "DAOY cells [2]": {"system": "DAOY cells", "assay": "PrestoBlue Cell Viability assay", "conditions": "Homo sapiens, read-out: PB: IC50 of the PrestoBlue Viability assay", "experimental": "(§1) Cell viability was assessed using the Presto Blue™ Cell Viability reagent (Thermo Fisher Scientific, Carlsbad, CA, USA) following the manufacturer’s instructions. Cells were plated in 96-well plates at the same densities described above for the proliferation assay. The fluorescence was measured after 24, 48, 72, and 96 h at concentrations ranging from 0.001 to 10 µM of the inhibitor. All assays were performed in triplicate."}, "MON cells": {"system": "MON cells", "assay": "PrestoBlue Cell Viability assay", "conditions": "read-out: PB: IC50 of the PrestoBlue Viability assay", "experimental": "as §1"}, "D283 cells [3]": {"system": "D283 cells", "assay": "PrestoBlue Cell Viability assay", "conditions": "read-out: PB: IC50 of the PrestoBlue Viability assay", "experimental": "as §1"}, "D283 cells [4]": {"system": "D283 cells", "conditions": "D283, read-out: MTT: IC50 of the proliferation assay"}},
  "note": "Where two headings read alike, the source gives them in different places.",
  "data": [
    {"smiles": "CNC(=O)c1ccccc1Sc1ccc2c(/C=C/c3ccccn3)n[nH]c2c1", "note": "[axitinib]", "values": [
      {"measurement": "IC50", "setting": "DAOY cells [1]", "result": 1150, "unit": "nM"},
      {"measurement": "IC50", "setting": "DAOY cells [2]", "result": 1430, "unit": "nM"},
      {"measurement": "IC50", "setting": "MON cells", "result": 4500, "unit": "nM"},
      {"measurement": "IC50", "setting": "D283 cells [3]", "result": 0.918, "unit": "nM"},
      {"measurement": "IC50", "setting": "D283 cells [4]", "result": 0.394, "unit": "nM"}
    ]}
  ]
}
